Measurements as given in the supplement of paper PMC6411743.
± gives the standard deviation of the averaged measurements. Some of the results follow.

The chains behind the UniProt entries cited, without tags or fusion partners. Where a name states a change or a piece, a line headed by the entry shows the natural chain unless it says otherwise.
UniProt Q8NBQ5: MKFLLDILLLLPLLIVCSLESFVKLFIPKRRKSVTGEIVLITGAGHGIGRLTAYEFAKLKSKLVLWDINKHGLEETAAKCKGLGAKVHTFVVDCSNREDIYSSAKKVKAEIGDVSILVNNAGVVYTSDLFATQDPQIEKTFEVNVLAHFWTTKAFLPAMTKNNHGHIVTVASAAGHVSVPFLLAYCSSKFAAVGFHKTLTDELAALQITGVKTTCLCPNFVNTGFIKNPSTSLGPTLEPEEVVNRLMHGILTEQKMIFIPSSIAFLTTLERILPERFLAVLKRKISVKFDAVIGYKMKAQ
UniProt Q9UDY4: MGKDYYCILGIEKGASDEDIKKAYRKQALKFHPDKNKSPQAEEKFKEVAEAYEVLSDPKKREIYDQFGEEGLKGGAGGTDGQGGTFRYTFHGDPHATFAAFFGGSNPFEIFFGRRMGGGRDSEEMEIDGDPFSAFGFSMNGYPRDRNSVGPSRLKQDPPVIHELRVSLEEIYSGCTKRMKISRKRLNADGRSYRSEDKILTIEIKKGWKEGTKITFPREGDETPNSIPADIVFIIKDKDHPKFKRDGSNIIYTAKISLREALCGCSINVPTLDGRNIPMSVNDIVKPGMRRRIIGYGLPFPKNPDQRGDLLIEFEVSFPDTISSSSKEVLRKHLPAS
UniProt Q6PIZ9: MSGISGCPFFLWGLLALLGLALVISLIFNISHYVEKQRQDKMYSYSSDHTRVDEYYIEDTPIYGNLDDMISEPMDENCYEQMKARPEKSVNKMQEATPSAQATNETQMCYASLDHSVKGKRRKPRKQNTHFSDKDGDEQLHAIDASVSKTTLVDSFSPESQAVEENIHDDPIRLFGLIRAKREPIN
UniProt Q53H47: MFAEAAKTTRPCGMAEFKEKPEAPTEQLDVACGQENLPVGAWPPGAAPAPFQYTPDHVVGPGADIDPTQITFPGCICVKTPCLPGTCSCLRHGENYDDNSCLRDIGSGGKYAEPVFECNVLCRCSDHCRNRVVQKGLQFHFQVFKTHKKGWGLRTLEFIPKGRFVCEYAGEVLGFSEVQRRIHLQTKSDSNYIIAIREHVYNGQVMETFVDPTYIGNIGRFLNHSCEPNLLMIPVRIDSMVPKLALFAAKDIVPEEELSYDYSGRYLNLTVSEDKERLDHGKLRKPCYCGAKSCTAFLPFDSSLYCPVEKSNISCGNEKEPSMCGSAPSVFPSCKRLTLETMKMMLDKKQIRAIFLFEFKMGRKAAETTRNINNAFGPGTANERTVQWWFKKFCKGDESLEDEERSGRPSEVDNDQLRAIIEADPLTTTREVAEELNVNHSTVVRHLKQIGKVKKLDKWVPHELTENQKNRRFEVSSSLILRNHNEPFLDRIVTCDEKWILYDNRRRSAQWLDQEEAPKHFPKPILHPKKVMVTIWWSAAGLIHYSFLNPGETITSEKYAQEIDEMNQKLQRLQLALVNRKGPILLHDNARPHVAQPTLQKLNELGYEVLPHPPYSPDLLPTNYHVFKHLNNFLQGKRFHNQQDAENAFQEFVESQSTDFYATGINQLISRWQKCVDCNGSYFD
UniProt Q9BQ75: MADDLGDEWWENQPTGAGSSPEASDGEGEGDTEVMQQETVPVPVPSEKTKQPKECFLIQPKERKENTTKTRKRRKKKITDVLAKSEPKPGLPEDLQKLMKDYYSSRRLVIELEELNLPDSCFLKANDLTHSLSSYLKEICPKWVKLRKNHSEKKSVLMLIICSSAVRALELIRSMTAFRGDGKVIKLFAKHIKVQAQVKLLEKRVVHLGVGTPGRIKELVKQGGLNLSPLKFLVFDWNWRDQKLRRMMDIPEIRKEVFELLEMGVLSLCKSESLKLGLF
UniProt Q12905: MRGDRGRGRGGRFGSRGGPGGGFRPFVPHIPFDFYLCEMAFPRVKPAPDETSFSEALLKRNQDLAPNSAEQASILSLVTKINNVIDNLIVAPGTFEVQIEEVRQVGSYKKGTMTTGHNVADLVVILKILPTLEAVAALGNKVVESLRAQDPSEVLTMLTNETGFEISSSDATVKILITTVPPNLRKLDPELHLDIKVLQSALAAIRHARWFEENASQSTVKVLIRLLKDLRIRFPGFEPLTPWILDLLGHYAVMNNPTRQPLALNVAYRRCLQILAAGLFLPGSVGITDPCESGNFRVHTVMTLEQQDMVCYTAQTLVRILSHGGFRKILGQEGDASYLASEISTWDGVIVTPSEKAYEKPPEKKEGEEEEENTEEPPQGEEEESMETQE
UniProt O75390: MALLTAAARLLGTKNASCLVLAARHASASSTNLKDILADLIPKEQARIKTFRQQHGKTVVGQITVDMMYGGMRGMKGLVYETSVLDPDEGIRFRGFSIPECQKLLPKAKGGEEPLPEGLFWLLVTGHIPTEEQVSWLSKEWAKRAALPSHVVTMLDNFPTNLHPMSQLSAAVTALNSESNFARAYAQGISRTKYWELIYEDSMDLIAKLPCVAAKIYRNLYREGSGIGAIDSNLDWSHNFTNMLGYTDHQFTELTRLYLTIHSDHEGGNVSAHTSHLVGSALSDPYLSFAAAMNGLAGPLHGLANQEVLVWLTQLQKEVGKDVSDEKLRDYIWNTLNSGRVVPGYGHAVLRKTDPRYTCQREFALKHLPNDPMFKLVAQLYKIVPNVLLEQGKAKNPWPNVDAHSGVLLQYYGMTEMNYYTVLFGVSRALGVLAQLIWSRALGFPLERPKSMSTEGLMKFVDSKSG
UniProt Q96SY0, whole entry: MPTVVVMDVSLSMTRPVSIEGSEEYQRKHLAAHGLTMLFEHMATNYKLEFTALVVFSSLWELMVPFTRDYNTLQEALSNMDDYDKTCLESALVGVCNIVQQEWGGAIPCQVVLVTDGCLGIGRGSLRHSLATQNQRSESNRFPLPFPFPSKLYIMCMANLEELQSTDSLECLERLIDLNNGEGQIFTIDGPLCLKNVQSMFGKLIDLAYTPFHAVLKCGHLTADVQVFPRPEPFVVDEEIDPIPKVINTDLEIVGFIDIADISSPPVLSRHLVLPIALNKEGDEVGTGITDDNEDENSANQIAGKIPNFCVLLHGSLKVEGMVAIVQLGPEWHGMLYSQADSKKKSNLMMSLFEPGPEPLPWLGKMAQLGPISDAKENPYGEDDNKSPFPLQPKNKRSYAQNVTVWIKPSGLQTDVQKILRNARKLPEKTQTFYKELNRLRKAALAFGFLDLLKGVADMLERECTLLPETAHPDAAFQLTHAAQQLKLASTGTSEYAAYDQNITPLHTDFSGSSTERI
UniProt P41732: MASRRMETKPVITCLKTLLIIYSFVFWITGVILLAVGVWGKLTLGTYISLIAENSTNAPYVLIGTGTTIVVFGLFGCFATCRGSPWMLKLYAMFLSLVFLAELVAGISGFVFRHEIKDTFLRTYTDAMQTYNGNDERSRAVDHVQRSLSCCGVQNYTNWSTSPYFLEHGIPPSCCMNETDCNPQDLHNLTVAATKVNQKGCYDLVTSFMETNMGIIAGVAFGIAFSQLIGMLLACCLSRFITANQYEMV
UniProt Q9Y2K5: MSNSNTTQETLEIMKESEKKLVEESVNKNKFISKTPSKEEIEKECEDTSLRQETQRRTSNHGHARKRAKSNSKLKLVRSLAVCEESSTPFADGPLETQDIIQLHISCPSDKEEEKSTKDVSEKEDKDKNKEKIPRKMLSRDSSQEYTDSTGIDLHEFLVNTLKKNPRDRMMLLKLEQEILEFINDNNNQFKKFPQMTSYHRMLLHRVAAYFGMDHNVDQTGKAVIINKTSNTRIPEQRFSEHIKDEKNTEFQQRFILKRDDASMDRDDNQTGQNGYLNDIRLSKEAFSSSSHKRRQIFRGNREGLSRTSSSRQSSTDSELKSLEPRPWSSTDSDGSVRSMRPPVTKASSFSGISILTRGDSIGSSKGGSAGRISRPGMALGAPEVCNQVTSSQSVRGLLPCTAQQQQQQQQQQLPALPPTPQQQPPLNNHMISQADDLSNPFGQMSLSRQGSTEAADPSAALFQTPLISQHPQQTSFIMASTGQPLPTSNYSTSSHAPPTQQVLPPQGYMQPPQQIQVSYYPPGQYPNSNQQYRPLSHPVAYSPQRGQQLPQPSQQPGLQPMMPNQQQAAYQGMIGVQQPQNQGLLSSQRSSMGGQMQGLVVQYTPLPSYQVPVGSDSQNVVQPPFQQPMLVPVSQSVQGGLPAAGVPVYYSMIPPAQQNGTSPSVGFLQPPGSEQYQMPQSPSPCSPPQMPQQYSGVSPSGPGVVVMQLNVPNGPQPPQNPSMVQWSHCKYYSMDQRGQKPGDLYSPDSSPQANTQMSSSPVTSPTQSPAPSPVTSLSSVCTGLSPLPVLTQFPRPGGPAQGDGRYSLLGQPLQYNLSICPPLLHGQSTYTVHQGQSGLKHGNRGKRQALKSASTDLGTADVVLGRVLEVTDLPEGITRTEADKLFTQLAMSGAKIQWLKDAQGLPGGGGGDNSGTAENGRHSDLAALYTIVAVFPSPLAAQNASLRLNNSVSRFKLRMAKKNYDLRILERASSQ
UniProt O75496: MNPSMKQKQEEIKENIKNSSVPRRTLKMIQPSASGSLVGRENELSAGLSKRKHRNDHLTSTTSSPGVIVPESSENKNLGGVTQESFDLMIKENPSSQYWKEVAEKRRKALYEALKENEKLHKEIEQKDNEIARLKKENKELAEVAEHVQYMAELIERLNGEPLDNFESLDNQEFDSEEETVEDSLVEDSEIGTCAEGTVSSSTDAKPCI
UniProt P05166: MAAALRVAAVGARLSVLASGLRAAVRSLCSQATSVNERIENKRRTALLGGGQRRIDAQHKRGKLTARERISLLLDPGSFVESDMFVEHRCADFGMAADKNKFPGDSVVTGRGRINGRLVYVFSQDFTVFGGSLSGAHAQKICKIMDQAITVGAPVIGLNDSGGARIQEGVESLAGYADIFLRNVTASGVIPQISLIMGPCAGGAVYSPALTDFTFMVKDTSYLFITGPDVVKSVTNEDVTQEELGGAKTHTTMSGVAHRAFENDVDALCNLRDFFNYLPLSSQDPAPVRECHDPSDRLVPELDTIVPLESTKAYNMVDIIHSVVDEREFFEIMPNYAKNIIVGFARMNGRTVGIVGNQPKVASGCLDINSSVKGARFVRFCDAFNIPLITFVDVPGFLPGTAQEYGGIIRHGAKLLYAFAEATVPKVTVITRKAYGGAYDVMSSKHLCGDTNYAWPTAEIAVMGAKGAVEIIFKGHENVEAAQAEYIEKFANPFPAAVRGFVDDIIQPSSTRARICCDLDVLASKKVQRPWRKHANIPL
UniProt Q9BZK7: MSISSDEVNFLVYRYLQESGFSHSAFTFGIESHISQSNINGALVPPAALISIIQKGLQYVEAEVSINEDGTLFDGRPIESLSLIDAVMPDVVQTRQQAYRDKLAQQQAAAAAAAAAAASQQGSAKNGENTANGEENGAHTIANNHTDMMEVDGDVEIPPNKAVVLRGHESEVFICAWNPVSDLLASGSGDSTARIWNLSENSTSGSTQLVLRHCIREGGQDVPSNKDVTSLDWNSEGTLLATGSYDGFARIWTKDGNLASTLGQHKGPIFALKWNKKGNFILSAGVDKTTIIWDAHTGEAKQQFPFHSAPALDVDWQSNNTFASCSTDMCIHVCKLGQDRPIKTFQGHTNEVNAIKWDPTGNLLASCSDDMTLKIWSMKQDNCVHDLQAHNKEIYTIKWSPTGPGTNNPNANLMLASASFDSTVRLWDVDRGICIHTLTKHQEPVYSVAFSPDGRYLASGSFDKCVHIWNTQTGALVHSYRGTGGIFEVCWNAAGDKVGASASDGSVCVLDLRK
UniProt P07910: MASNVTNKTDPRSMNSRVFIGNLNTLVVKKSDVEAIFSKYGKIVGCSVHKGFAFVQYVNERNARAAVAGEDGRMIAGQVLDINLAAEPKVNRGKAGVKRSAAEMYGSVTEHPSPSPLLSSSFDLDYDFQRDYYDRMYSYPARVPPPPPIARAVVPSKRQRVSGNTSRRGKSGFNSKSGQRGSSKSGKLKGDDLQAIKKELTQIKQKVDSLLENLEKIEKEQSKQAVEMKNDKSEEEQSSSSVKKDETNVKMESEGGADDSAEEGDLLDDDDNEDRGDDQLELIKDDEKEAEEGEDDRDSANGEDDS
UniProt Q7L5N1: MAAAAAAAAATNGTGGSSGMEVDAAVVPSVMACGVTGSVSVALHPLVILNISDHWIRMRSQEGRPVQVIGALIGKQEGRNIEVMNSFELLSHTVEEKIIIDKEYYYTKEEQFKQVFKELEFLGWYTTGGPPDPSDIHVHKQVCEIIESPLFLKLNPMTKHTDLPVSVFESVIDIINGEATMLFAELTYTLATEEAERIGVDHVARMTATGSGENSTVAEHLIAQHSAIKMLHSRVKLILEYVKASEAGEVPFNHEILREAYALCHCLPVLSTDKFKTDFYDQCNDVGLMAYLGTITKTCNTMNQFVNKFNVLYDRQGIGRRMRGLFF

Compound: Nc1nc2c(ncn2[C@@H]2O[C@H](COP(=O)(O)OP(=O)(O)OP(=O)(O)O)[C@@H](O)[C@H]2O)c(=O)[nH]1 [guanosine triphosphate]
Assay: NP40-soluble protein abundance relative to vehicle (solubility fold change) (ratio); higher = more soluble protein in presence of GTP
Method in brief: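 Crude Jurkat lysate, prepared by Dounce homogenisation, was exposed to eight concentrations from 0.1 to 10 mM for 10 min at room temperature and then 3 min at 37 °C. Solubilisation used 0.8% NP40 with benzonase for 60 min at 4 °C, followed by ultracentrifugation and TMT labelling of the supernatant for LC-MS/MS. After vsn normalisation of intensities, each value is the fold change against the detergent-processed vehicle within each replicate, across three independent experiments.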

| Target | NP40-soluble protein abundance (concentration: 0.1mM) | NP40-soluble protein abundance (concentration: 0.5mM) | NP40-soluble protein abundance (concentration: 1mM) | NP40-soluble protein abundance (concentration: 2mM) | NP40-soluble protein abundance (concentration: 4mM) | NP40-soluble protein abundance (concentration: 6mM) | NP40-soluble protein abundance (concentration: 8mM) | NP40-soluble protein abundance (concentration: 10mM) |
| --- | --- | --- | --- | --- | --- | --- | --- | --- |
| D6RCD0 and related entries (UniProt Q8NBQ5) | 1.07 ± 0.061 | 1.03 ± 0.15 | 0.909 ± 0.07 | 0.971 ± 0.15 | 0.931 ± 0.17 | 0.897 ± 0.13 | 0.89 ± 0.12 | 0.921 ± 0.087 |
| C9JUL4 and related entries (UniProt Q9UDY4) | 1.02 ± 0.089 | 1.02 ± 0.056 | 0.867 ± 0.042 | 0.946 ± 0.097 | 0.94 ± 0.087 | 0.948 ± 0.055 | 0.9 ± 0.032 | 0.893 ± 0.051 |
| C9JF66 and related entries (UniProt Q6PIZ9) | 1.15 ± 0.2 | 1.079 ± 0.0057 | 1.072 ± 0.0092 | 1.14 ± 0.13 | 1.15 ± 0.14 | 1.09 ± 0.025 | 1.15 ± 0.042 | 1.14 ± 0.19 |
| B9ZVV8 and related entries (UniProt Q53H47) | 1.09 ± 0.061 | 1.03 ± 0.033 | 1.04 ± 0.081 | 1.01 ± 0.073 | 1.01 ± 0.058 | 1.02 ± 0.057 | 1.02 ± 0.041 | 1.01 ± 0.11 |
| C9IY68 and related entries (UniProt Q9BQ75) | 0.945 ± 0.058 | 1.03 ± 0.083 | 1.06 ± 0.071 | 1.1 ± 0.058 | 1.17 ± 0.069 | 1.22 ± 0.094 | 1.23 ± 0.12 | 1.31 ± 0.04 |
| B4DY09 and related entries (UniProt Q12905) | 0.96 ± 0.045 | 1.07 ± 0.066 | 1.08 ± 0.067 | 1.16 ± 0.1 | 1.18 ± 0.1 | 1.29 ± 0.12 | 1.25 ± 0.13 | 1.29 ± 0.13 |
| B4DJV2 and related entries (UniProt O75390) | 0.981 ± 0.017 | 0.975 ± 0.015 | 0.911 ± 0.027 | 0.881 ± 0.0095 | 0.886 ± 0.019 | 0.863 ± 0.015 | 0.845 ± 0.036 | 0.827 ± 0.045 |
| B4DJL6 and related entries (UniProt Q96SY0) | 1.03 ± 0.049 | 1.03 ± 0.035 | 1.03 ± 0.064 | 1.07 ± 0.051 | 1.03 ± 0.058 | 1.09 ± 0.025 | 1.07 ± 0.086 | 1.05 ± 0.066 |
| B4DDG0 and related entries (UniProt P41732+B4E171+B4DDG0) | 0.962 ± 0.061 | 0.871 ± 0.08 | 0.913 ± 0.064 | 0.885 ± 0.075 | 0.925 ± 0.042 | 0.92 ± 0.087 | 0.85 ± 0.055 | 0.921 ± 0.093 |
| B5MCU0 (UniProt Q9Y2K5) | 1.02 ± 0.041 | 1 ± 0.0098 | 1.05 ± 0.1 | 1.02 ± 0.017 | 0.862 ± 0.097 | 0.941 ± 0.12 | 1.05 ± 0.032 | 0.9186 ± 0.0046 |
| E2QRF9 and related entries (UniProt O75496) | 0.934 ± 0.055 | 0.945 ± 0.053 | 0.974 ± 0.054 | 0.952 ± 0.065 | 0.949 ± 0.079 | 0.949 ± 0.042 | 0.986 ± 0.06 | 1.01 ± 0.069 |
| C9JQS9 and related entries (UniProt P05166) | 1.07 ± 0.045 | 1.08 ± 0.044 | 1.02 ± 0.032 | 1.07 ± 0.073 | 1.08 ± 0.06 | 1.04 ± 0.088 | 1.04 ± 0.037 | 1.03 ± 0.066 |
| A6NMN0 and related entries (UniProt P46020) | 1.04 ± 0.061 | 1.03 ± 0.038 | 1.07 ± 0.048 | 1.07 ± 0.043 | 1.1 ± 0.068 | 1.1 ± 0.057 | 1.16 ± 0.12 | 1.05 ± 0.14 |
| C9JLJ1 and related entries (UniProt Q9BZK7) | 1.03 ± 0.051 | 1.07 ± 0.081 | 1.01 ± 0.061 | 1.03 ± 0.095 | 1.07 ± 0.13 | 1.05 ± 0.094 | 1.02 ± 0.083 | 1.02 ± 0.074 |
| B2R5W2 and related entries (UniProt P07910) | 0.9495 ± 0.002 | 1.03 ± 0.042 | 1.12 ± 0.11 | 1.09 ± 0.13 | 1.04 ± 0.19 | 1.04 ± 0.17 | 1.02 ± 0.23 | 0.98 ± 0.22 |
| C9JQK5 and related entries (UniProt Q7L5N1) | 1.06 ± 0.075 | 1.08 ± 0.1 | 1.01 ± 0.063 | 1.02 ± 0.097 | 0.99 ± 0.083 | 1.01 ± 0.11 | 0.959 ± 0.062 | 0.94 ± 0.056 |

Look-ups from the results shown.
B4DJV2 and related entries (UniProt O75390) – NP40-soluble protein abundance (concentration: 8mM): 0.845 ± 0.036
C9JLJ1 and related entries (UniProt Q9BZK7) – NP40-soluble protein abundance (concentration: 0.1mM): 1.03 ± 0.051
